Test results reported in publication doi:10.1101/2019.12.24.886648.
These are yes or no findings as the source states them, for the method shown. In cells and extracts the contact can be indirect. Some binding calls cover weakened binding; strength is not graded here. For part of these data: Where a sequence is shown, tags or fusion partners need not be part of it.

Sequences of proteins named here, by UniProt entry; tags and fusion partners are left off.
UniProt A0FGR9: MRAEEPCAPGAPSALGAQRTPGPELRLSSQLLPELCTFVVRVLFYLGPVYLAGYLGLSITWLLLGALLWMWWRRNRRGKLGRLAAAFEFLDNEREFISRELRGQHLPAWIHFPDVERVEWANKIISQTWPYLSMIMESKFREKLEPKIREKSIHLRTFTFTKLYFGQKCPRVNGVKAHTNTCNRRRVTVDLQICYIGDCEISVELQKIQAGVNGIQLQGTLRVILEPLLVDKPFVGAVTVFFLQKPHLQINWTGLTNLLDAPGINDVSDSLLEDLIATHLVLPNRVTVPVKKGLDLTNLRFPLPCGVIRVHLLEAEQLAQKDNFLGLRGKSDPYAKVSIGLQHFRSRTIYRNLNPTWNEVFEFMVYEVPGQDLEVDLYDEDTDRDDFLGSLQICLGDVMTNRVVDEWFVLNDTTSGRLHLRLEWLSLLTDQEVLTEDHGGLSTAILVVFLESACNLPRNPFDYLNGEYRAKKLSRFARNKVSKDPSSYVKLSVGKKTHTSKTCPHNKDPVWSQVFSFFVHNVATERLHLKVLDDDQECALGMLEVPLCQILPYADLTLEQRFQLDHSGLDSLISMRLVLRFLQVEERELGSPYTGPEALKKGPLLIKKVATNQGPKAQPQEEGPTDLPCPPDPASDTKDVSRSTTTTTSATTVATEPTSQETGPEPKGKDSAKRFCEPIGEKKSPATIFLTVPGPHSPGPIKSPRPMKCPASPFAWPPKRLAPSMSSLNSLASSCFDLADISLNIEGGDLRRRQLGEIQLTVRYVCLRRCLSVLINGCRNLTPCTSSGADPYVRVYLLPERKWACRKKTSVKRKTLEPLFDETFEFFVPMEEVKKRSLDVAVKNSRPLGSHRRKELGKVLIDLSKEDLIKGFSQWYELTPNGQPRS

T1: eGFP-Stx3 (human) (UniProt Q13277)
T1 sequence: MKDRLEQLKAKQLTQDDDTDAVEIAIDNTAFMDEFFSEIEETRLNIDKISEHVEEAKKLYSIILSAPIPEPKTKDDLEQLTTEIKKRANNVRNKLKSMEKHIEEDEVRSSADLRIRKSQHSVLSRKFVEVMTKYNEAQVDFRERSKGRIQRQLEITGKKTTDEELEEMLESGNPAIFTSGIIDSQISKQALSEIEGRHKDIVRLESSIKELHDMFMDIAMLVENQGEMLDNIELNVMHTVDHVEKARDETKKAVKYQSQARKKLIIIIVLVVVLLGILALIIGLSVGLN

T2: Sec22b-pHL, O75396
T2 chain: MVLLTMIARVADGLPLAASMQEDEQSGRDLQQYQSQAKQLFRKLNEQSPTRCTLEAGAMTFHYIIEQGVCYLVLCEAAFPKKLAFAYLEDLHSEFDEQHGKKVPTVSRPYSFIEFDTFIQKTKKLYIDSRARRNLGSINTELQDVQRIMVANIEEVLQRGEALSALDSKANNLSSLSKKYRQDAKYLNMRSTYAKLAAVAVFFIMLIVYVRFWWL

B1: endogenous Sec22b (rat), Q4KM74 1-215 (protein)
chain: T2 chain

Columns and labels:
eGFP-Stx3 (human) = biological target: T1, eGFP-Stx3 (human); test: co-IP
Sec22b-pHL, O75396 = biological target: T2, Sec22b-pHL, O75396; test: co-IP; details: remark: other sources report otherwise

| Molecule | binding (eGFP-Stx3 (human)) | binding (Sec22b-pHL, O75396) |
| --- | --- | --- |
| 3XFLAG-Sec22b (from UniProt O75396 1-215) | binds | – |
| Myc-E-Syt3 (from UniProt A0FGR9 1-886) | binds | – |
| B1 | – | binds |
